System: antibody RS2845 (raised against Immunogen II)
Assay: Competitive ELISA: HRP tracer (Tracer 1) versus pregabalin or potential cross-reactants for binding sites of polyclonal antibody RS2845
Conditions: 450 nm
Protocol: The antibody titre is evaluated by coating a microtitre plate (Thermo Fisher Scientific NUNC, 468667) with antibody (125 μl/well) in coating buffer (10 mM Tris pH 8.5) at 37° C. for 2 hours. The plate is then washed 4 times over 10 minutes with working strength mixture of Tris-Buffered Saline and Tween 20 (TBST). 50 μl of sample/standard (pregabalin) is added to the appropriate wells in triplicate, followed by 75 μl of hapten-HRP conjugate and incubated at 25° C. for 1 hour. The plate is then washed and 125 μl of TMB (Randox Laboratories, 4380-15) added to each well and left at room temperature for 20 mins in the dark. The reaction is stopped using 125 μl of 0.2 M sulphuric acid. The absorbances are read at 450 nm with an ELISA microplate reader (BIO-TEK Instruments, Elx800) and the means calculated. Antibody sensitivity can then be determined.
IgG was extracted from serum from the immunized animal the using ammonium sulphate/caprylic acid precipitation and the purified antibody was immobilised on a 96 well ELISA plate at 5 μg/ml in 10 mM TRIS buffer, pH 8.5 overnight at 4° C. The assay was based on competition for binding sites of a polyclonal antibody between HRP tracer and pregabalin or potential cross-reactants. The plate was washed (×3) with TBST and the calibrator (pregabalin) or potential cross reactants added (50 μl per well), followed by HRP tracer (75 μl/well) to the appropriate wells. The plates were then incubated for 60 minutes at 25° C. They were then subjected to 2 quick wash cycles using TBST, followed by 4×2 minute wash cycles. 125 μL of signal 25 (TMB) was then added to each well for 20 mins at room temperature in the dark. The reaction was stopped by the addition of 125 μl of 0.2 M Sulphuric Acid per well and the plates read immediately at 450 nm. Calibration curves were generated and these were used to determine the sensitivity and specificity of the immunoassay for pregabalin and potential cross-reactants. The data was inputted to a computer program called ‘KC Junior’ (Biotek). […] This program is used to calculate the IC50 values by dividing the 0 ng/ml optical density (OD) value by 2 and obtaining the concentration value from the curve for this OD.
wherein % CR is the percentage cross-reactivity, IC50 pregabalin is the concentration of pregabalin which causes 50% displacement of signal and IC50 CR is the concentration of potential cross-reactant that causes 50% displacement of signal.
The antibody (RS2845) used to generate the data in the tables below was raised from Immunogen II (Example 9) and the HRP tracer was prepared as in Example 10 (Tracer 1).

## CC(C)CC(CN)CC(=O)O (centres unmarked) [Pregabalin, 3-(aminomethyl)-5-methylhexanoic acid]
Pregabalin 0.02 ng/ml
  Average OD: 1.862
Pregabalin 0.08 ng/ml
  Average OD: 1.276
Pregabalin 0.31 ng/ml
  Average OD: 0.696
Pregabalin 1.25 ng/ml
  Average OD: 0.346
Pregabalin 5.00 ng/ml
  Average OD: 0.178

Source: patent US20160266153A1, “I[…] PREGABALIN” (Randox Laboratories Limited, priority 2015, published 2016)
